Source: PMC10849765
No constants are given. Whether binding was seen depends on the method and setting. Binding seen in cells or lysates may run through a third protein. Here binding means that the protein was enriched with, or labelled near, the bait; the list need not be complete.

Chains of the proteins cited; added tags and fusions are not shown. Lines headed by an entry give the natural chain unless they say otherwise; changes in a name come on top. A line that says so, or that is headed by a name, gives the form on record, which may keep a tag or linker.
ARRB1-Δexon 13 (β-arrestin 1 isoform lacking exon 13) (P49407, form named): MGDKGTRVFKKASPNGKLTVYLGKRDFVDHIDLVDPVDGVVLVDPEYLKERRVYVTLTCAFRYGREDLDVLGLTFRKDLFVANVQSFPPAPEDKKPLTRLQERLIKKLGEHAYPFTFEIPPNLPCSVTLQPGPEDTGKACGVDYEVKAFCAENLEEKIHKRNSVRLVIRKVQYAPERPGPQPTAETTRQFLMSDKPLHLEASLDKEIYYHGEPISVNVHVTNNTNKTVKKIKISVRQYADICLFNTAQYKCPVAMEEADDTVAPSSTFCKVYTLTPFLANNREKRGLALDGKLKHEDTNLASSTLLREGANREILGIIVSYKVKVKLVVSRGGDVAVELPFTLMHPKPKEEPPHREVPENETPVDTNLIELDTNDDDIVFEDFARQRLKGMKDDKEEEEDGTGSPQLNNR
UniProt P06733: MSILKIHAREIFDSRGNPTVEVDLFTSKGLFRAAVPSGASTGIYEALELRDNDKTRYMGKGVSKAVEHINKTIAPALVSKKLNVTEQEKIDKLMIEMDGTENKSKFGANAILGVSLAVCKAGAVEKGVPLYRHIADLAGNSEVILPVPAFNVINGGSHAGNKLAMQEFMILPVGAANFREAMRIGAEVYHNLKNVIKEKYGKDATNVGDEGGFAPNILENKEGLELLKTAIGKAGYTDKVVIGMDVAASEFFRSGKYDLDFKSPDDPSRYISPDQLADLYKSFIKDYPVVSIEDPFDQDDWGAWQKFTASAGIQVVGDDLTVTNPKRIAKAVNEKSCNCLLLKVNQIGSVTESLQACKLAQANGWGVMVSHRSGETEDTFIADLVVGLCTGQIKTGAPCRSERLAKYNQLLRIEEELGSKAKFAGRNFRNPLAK
UniProt Q62167: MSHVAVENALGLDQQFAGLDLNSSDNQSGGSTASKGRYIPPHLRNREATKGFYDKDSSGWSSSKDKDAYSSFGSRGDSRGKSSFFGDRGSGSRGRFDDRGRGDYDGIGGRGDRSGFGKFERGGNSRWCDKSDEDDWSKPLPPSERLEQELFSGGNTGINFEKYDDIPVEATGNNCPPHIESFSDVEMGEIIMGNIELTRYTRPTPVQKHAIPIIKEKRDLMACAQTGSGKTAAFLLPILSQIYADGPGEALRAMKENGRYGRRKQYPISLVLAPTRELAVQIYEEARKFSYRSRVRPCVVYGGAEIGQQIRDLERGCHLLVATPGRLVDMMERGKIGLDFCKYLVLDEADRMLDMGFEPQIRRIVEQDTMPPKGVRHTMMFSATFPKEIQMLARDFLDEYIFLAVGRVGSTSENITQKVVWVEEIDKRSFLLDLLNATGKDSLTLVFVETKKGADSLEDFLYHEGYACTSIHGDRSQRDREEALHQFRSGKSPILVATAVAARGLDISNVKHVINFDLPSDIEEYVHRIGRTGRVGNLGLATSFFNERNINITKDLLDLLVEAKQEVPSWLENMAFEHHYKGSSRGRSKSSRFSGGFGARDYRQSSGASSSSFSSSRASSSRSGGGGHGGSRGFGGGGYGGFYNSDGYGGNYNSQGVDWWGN

T1: asparagine endopeptidase (AEP), human, re-expressed in AEP-KO mouse embryonic fibroblasts (human) (UniProt Q99538)
T1 sequence: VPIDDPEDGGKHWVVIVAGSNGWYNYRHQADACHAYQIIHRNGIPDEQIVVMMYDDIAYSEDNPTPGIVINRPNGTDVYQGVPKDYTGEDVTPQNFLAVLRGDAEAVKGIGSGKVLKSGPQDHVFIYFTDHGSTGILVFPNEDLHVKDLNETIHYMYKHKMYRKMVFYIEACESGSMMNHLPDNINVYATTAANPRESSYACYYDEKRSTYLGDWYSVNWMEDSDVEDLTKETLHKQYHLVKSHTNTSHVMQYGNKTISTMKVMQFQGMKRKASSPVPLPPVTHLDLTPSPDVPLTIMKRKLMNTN


Legend:
[1] = molecular target: ARRB1-Δexon 13 (β-arrestin 1 isoform lacking exon 13) (human) (UniProt P49407); experiment: affinity purification with mass spectrometry; ARRB1-Δexon 13 immunoprecipitated, mass spectrum assay
[2] = molecular target: T1, asparagine endopeptidase (AEP), human, re-expressed in AEP-KO mouse embryonic fibroblasts (human); experiment: affinity purification with mass spectrometry; IP with an anti-AEP antibody (1:50) from lysate (IP buffer) of lgmn-KO MEFs re-expressing human LGMN; MS of the immunoprecipitate

Row | binding [1] | binding [2] | Molecule
1 | binds |  | ENO1 (from UniProt P06733 1-434) (enzyme)
2 |  | binds | DEAD-box helicase 3 X-linked (DDX3X), endogenous in mouse embryonic fibroblasts (from UniProt Q62167 1-662)
3 | binds |  | ALDOA (enzyme, UniProt P04075 1-364) MPYQYPALTPEQKKELSDIAHRIVAPGKGILAADESTGSIAKRLQSIGTENTEENRRFYRQLLLTADDRVNPCIGGVILFHETLYQKADDGRPFPQVIKSKGGVVGIKVDKGVVPLAGTNGETTTQGLDGLSERCAQYKKDGADFAKWRCVLKIGEHTPSALAIMENANVLARYASICQQNGIVPIVEPEILPDGDHDLKRCQYVTEKVLAAVYKALSDHHIYLEGTLLKPNMVTPGHACTQKFSHEEIAMATVTALRRTVPPAVTGITFLSGGQSEEEASINLNAINKCPLLKPWALTFSYGRALQASALKAWGGKKENLKAAQEEYVKRALANSLACQGKYTPSGQAGAAASESLFVSNHAY
